Patent US12290575B2, “Fluorescent compound comprising a fluorophore conjugated to a pH-triggered polypeptide” (UNIVERSITY OF RHODE ISLAND BOARD OF TRUSTEES, priority 2016, dated 2025)
Not every detail of the peptide structures is certain; ends, links or a residue may be inferred. Some of these results come from one statement about several compounds together. Where a SMILES comes first, the peptide text is derived from it. The star is where a group is joined. X2 = CC1(C)C(/C=C/C2=C(Oc3ccc(S(=O)(=O)O)cc3)C(=C/C=C3/N(CCCCCC(=O)NCCN4C(=O)CC(*)C4=O)c4ccc(S(=O)(=O)O)cc4C3(C)C)/CCC2)=[N+](CCCCS(=O)(=O)O)c2ccc(S(=O)(=O)[O-])cc21; X1 = CC1(C)C(/C=C/C=C/C=C/C=C2/N(CCCCCC(=O)NCCN3C(=O)CC(*)C3=O)c3ccc4ccccc4c3C2(C)C)=[N+](CCCCS(=O)(=O)[O-])c2ccc3ccccc3c21

Columns and labels:
[1] = Fluorescence imaging of blood flow in mice (ear, leg, blood samples); format: in vivo, nude mice; conditions: for imaging of blood vessels (ear, leg): 100 μL of 40 μM IV, 5, 30, 60, 90, 120 min
Procedure: Adult female nude mice (Envigo), 20 g in body mass were used in the study. Fluorescent constructs were given as a single tail vein injection in amounts of 100 μL of 40 μM in PBS. Imaging of mouse ear and leg was performed at 5, 30, 60, 90 and 120 min after construct administration. At 5, 30, 60, 90 and 120 min after construct administration 5 μL of blood was withdrawn from tail (and mixed with 5 μL of anticoagulating solution to preserve blood) while animal was under anesthesia. Mice were euthanized immediately after last imaging point (120 min). Blood collected from all animals was deposited on the glass slide, dried and imaged. Imaging was performed using Novadaq clinical imaging instrument. Autofluorescence was established by imaging mouse with no injection of fluorescent constructs (the level of autofluorescence signal was insignificant compared to the signal after the constructs administration).

[2] = system: urothelial carcinoma in human bladder specimens; experiment: Ex vivo NIR fluorescence imaging of human bladder specimens after instillation; conditions: 4 μM of 80 mL (1.34 mg) of IR800-Var3 instilled 15 min
Procedure: 22 urothelial carcinoma patients that were scheduled for radical cystectomy were selected over a twelve month period. After radical cystectomy, bladder specimens were immediately removed and irrigated 3 times for 5 min via catheter with non-buffered saline and instilled and incubated with 80 ml of 8 μM or 32.8 μg/ml (unless otherwise is stated, see notes to Table 8) of ICG-Var3 construct or ICG-Cys in PBS pH 7.4 containing 10 mM D-glucose for 60 minutes. Then, the unbound constructs were removed by rinsing with 80 ml of saline solution 3-5 times, the bladder was irrigated thoroughly with buffered saline and opened using a Y incision on the anterior wall. Using a da Vinci Si near-infrared fluorescence imaging system (Firefly®), ex vivo fluorescent and white light imaging of the entire bladder and its parts was performed. The fluorescent spots were marked and standard pathological analysis was carried out to explore the correlation between appearance of fluorescent signal and cancer lesions.
The specimen was sectioned and submitted after 24 hour fixation in 10% phosphate-buffered formalin according to the standard institutional grossing manual, with emphasis on the marked areas of the bladder. The sections were processed for routine histology into paraffin-embedded blocks. […]
Statistical parameters were calculated according to the following equations: […]

4T1 tumors = experiment: NIR fluorescence imaging of 4T1 tumors in mice after IV or IP injection; format: in vivo, BALB/cAnNHsd mice; conditions: 16 h
Procedure: Adult female nude mice and female BALB/cAnNHsd mice (Envigo), 20-25 g in body mass were used in the study. Mouse mammary cancer 4T1 cells were subcutaneously implanted in the right flank (8×10^5 cells/0.1 mL/flank) of adult female BALB/cAnNHsd mice. Rat bladder cancer AY27 cells were subcutaneously implanted in the right flank (8×10^5 cells/0.1 mL/flank) of adult female nude mice. When tumors reached approximately 5-6 mm in diameter, single tail vein injection or single intraperitoneal injection of fluorophore-pHLIP® solutions in PBS were performed. Fluorescent constructs were used in amounts of 100 μL of 40 μM or 100 μL of 20 μM, or 100 μL of 10 μM, or 100 μL of 5 μM. Imaging of mouse was performed at 16 hours after constructs administration. Skin was removed from the tumor site just before imaging while animal was under gas anesthesia, and mice were euthanized immediately after imaging. Tumor, kidney and liver were harvested, imaged and used for histopathological analysis. Imaging was performed using Stryker clinical imaging instrument. Autofluorescence was established by imaging mouse with no injection of fluorescent constructs (the level of autofluorescence signal was insignificant compared to the signal after the constructs administration).

SMILES	imaging of blood vessels (ear, leg) [1]	time of imaging of blood vessels and blood flow ([1]; after a single IV injection) [h]	targeting of cancerous lesions in human bladder tissue (images), IR800 construct [2]	precision of tumor targeting (4T1 tumors)
CC[C@H](C)[C@H](NC(=O)[C@@H]1CCCN1C(=O)[C@H](CC(N)=O)NC(=O)[C@H](CCC(N)=O)NC(=O)[C@H](CCC(=O)O)NC(=O)[C@H](CSC1CC(=O)N(CCNC(=O)CCCCCN2/C(=C/C=C/C=C/C=C/C3=[N+](CCCCS(=O)(=O)[O-])c4ccc5ccccc5c4C3(C)C)C(C)(C)c3c2ccc2ccccc32)C1=O)NC(=O)[C@H](C)N)C(=O)N[C@@H](Cc1ccc(O)cc1)C(=O)N[C@@H](Cc1c[nH]c2ccccc12)C(=O)N[C@@H](C)C(=O)N[C@@H](CCCNC(=N)N)C(=O)N[C@@H](Cc1ccc(O)cc1)C(=O)N[C@@H](C)C(=O)N[C@@H](CC(N)=O)C(=O)N[C@@H](Cc1c[nH]c2ccccc12)C(=O)N[C@@H](CC(C)C)C(=O)N[C@@H](Cc1ccccc1)C(=O)N[C@H](C(=O)N[C@H](C(=O)N1CCC[C@H]1C(=O)N[C@@H](CC(C)C)C(=O)N[C@@H](CC(C)C)C(=O)N[C@@H](CC(C)C)C(=O)N[C@@H](CC(C)C)C(=O)N[C@@H](CC(N)=O)C(=O)N[C@@H](CC(C)C)C(=O)N[C@@H](C)C(=O)N[C@@H](CC(C)C)C(=O)N[C@@H](CC(C)C)C(=O)N[C@H](C(=O)N[C@@H](CC(=O)O)C(=O)N[C@@H](C)C(=O)N[C@@H](CC(=O)O)C(=O)N[C@@H](CCC(=O)O)C(=O)NCC(=O)N[C@H](C(=O)O)[C@@H](C)O)C(C)C)[C@@H](C)O)[C@@H](C)O (stereo partly drawn) [ICG-NpHLIP®] (H-AC(X1)EQNPIYWARYANWLFTTPLLLLNLALLVDADEGT-OH)	did not show good performance	–	–	–
CC[C@H](C)[C@H](NC(=O)[C@@H]1CCCN1C(=O)[C@H](CC(N)=O)NC(=O)[C@H](CCC(N)=O)NC(=O)[C@H](CCC(=O)O)NC(=O)[C@H](CSC1CC(=O)N(CCNC(=O)CCCCCN2/C(=C/C=C/C=C/C=C/C3=[N+](CCCCS(=O)(=O)[O-])c4ccc5ccccc5c4C3(C)C)C(C)(C)c3c2ccc2ccccc32)C1=O)NC(=O)[C@H](C)N)C(=O)N[C@@H](Cc1ccc(O)cc1)C(=O)N[C@@H](Cc1c[nH]c2ccccc12)C(=O)N[C@@H](C)C(=O)N[C@@H](CCCNC(=N)N)C(=O)N[C@@H](Cc1ccc(O)cc1)C(=O)N[C@@H](C)C(=O)N[C@@H](CC(=O)O)C(=O)N[C@@H](Cc1c[nH]c2ccccc12)C(=O)N[C@@H](CC(C)C)C(=O)N[C@@H](Cc1ccccc1)C(=O)N[C@H](C(=O)N[C@H](C(=O)N1CCC[C@H]1C(=O)N[C@@H](CC(C)C)C(=O)N[C@@H](CC(C)C)C(=O)N[C@@H](CC(C)C)C(=O)N[C@@H](CC(C)C)C(=O)N[C@@H](CC(=O)O)C(=O)N[C@@H](CC(C)C)C(=O)N[C@@H](C)C(=O)N[C@@H](CC(C)C)C(=O)N[C@@H](CC(C)C)C(=O)N[C@H](C(=O)N[C@@H](CC(=O)O)C(=O)N[C@@H](C)C(=O)N[C@@H](CC(=O)O)C(=O)N[C@@H](CCC(=O)O)C(=O)NCC(=O)N[C@H](C(=O)O)[C@@H](C)O)C(C)C)[C@@H](C)O)[C@@H](C)O (stereo partly drawn) [ICG-WT pHLIP®]	excellent persistent imaging of blood vessels within 2 hours	2 to 3	–	–
CC(C)C[C@H](NC(=O)[C@H](Cc1ccc(O)cc1)NC(=O)[C@H](C)NC(=O)[C@H](CCCNC(=N)N)NC(=O)[C@H](Cc1c[nH]c2ccccc12)NC(=O)[C@@H]1CCCN1C(=O)[C@H](CC(N)=O)NC(=O)[C@H](CCC(N)=O)NC(=O)[C@H](CC(=O)O)NC(=O)[C@H](CC(=O)O)NC(=O)[C@H](CSC1CC(=O)N(CCNC(=O)CCCCCN2/C(=C/C=C3\CCCC(/C=C/C4=[N+](CCCCS(=O)(=O)O)c5ccc(S(=O)(=O)[O-])cc5C4(C)C)=C3Oc3ccc(S(=O)(=O)O)cc3)C(C)(C)c3cc(S(=O)(=O)O)ccc32)C1=O)NC(=O)[C@H](C)N)C(=O)N[C@@H](CC(=O)O)C(=O)N[C@@H](CC(C)C)C(=O)N[C@@H](CC(C)C)C(=O)N[C@@H](Cc1ccccc1)C(=O)N1CCC[C@H]1C(=O)N[C@H](C(=O)N[C@@H](CC(=O)O)C(=O)N[C@H](C(=O)N[C@@H](CC(C)C)C(=O)N[C@@H](CC(C)C)C(=O)N[C@@H](CC(C)C)C(=O)N[C@@H](CC(=O)O)C(=O)N[C@@H](CC(C)C)C(=O)N[C@@H](CC(C)C)C(=O)N[C@@H](Cc1c[nH]c2ccccc12)C(=O)N[C@@H](C)C(=O)O)[C@@H](C)O)[C@@H](C)O (stereo partly drawn) [IR800-Var3] (H-AC(X2)DDQNPWRAYLDLLFPTDTLLLDLLWA-OH)	better in imaging of blood vessels, however not nearly as good as ICG-WT and ICG-Var3 pHLIP®s	–	targeting of cancerous lesions in human bladder tissue	target tumor with high precision
